PubChem BioAssay AID2551 (National Center for Advancing Translational Sciences (NCATS), 2010)
Screen size: about 310,000 compounds; about 17,000 (5.5%) were called active. The inconclusive results got no clear call from the source; some entries with a clear call stand among them for comparison. The call rests on the fitted dose curve; in most records, active means well fitted inhibition curve with a large enough effect; inconclusive means small, poorly fitted or top-dose-only effect, or effect the other way; inactive means no such curve, though single readings can be large or run the other way. Potencies beside an inconclusive call are fits to weak or partial responses and may not hold up.

Sequences of proteins named here, by UniProt entry; tags and fusion partners are left off. A change or cut given only in a name is not applied to a line headed by its entry.
UniProt P51450: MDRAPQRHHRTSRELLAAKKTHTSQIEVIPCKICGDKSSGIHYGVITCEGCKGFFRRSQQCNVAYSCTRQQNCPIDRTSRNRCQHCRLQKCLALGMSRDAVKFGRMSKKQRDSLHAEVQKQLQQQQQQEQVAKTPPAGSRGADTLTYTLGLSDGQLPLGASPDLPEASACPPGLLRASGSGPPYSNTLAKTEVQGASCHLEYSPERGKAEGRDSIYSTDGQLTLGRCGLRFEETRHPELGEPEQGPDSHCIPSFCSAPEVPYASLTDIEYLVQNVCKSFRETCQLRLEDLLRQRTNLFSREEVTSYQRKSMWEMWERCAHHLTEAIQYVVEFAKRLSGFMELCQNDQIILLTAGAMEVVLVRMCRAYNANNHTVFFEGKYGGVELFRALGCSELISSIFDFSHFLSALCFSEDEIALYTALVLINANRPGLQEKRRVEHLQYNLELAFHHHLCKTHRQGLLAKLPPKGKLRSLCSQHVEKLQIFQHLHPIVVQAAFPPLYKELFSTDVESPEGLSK

target: Nuclear receptor ROR-gamma (Mus musculus) (UniProt P51450); experiment: qHTS for inhibitors of ROR gamma transcriptional activity; details: Drosophila S2 Gal4-RORgamma UAS-luciferase reporter, 20 h; series mostly up to 53.6 µM; further: nearly all actives have a fitted effect of over 60% in size
How it was run: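 In this cell-based reporter format, copper sulfate (700 uM final) drives Gal4–ROR gamma fusion expression from a metallothionein promoter in Drosophila Schneider cells; compounds preincubated 1 hr, reporter read after 20 hr at ambient temperature.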
Potency means the concentration at half of the fitted maximal effect.

SMILES	Potency
COCC(C)n1c(C)cc(C(=O)COC(=O)c2c(NC(C)=O)sc(C)c2C)c1C (stereo unspecified)	active: 4.47 µM
Fc1cccc2sc(Nc3nc4cc5c(cc4s3)OCCO5)nc12	active: 5.62 µM
CC(=O)/C(=N\Nc1ccccc1)Sc1cccc2cccnc12	active: 14.1 µM
C/C=C(\CS(=O)(=O)c1ccccc1)S(=O)(=O)c1ccccc1	active: 3.55 µM
COc1ccc(-c2csc(NC(=S)NC(=O)c3ccc4ccccc4c3)n2)cc1OC	active: 2 µM
COc1ccc(N=C2SC(CC(=O)Nc3ccccc3OC)C(=O)N2Cc2ccco2)cc1 (stereo unspecified)	inconclusive: 0.0045 µM [activator, full curve, poor fit]
Cc1cc(C(=O)Oc2ccccc2C(=O)O)c(C)o1	inconclusive: 1.12 µM [inhibitor, single point]
CCc1ccc(C(C)NC(=O)c2cc(C)oc2C)cc1 (stereo unspecified)	inconclusive: 25.1 µM [inhibitor, single point]
CC(NC(=O)CCCCCCN1C(=O)c2ccccc2C1=O)c1ccc2c(c1)CCCC2 (stereo unspecified)	inconclusive: 17.8 µM [activator, partial curve]
CCOc1cc(NC(=S)NCc2ccco2)c(OCC)cc1NC(=O)CC	inconclusive: 35.5 µM [inhibitor, single point]
CCCNS(=O)(=O)c1ccc(CCC(=O)N2CCN(c3ccc(F)cc3)CC2)cc1	inconclusive: 15.8 µM [activator, single point]
O=C(CN1CCCc2ccccc21)NCCc1ccc(Cl)cc1	inconclusive: 35.5 µM [inhibitor, single point]
Cc1ccc(CC(=O)NCCN2CCOCC2)cc1	inactive
NC(=S)N/N=C/c1ncc(C(F)(F)F)cc1Cl	active: 0.631 µM
Cc1cc(CN(C)C(=O)c2cc(COc3ccc4ncccc4c3)on2)on1	active: 7.94 µM
COC(=O)NC(=C(Cl)Cl)S(=O)(=O)c1ccccc1	active: 10 µM
CC(C)Cn1c(C(C)NC(=O)Cc2ccccc2)nc2ccccc21 (stereo unspecified)	inconclusive: 35.5 µM [inhibitor, single point]
OC(CNCCc1ccc(Cl)cc1)COc1ccc2ccccc2c1 (stereo unspecified)	inconclusive: 14.1 µM [inhibitor, partial curve]
Cc1ccc2nc(NC(=O)c3ccc(Cl)s3)sc2c1	inactive
COc1cc(NC(=O)Nc2ccc(C)cc2)cc([N+](=O)[O-])c1	inconclusive: 20 µM [activator, single point]
Cc1ccc(-c2c(C)n([O-])c3c([n+]2=O)CCC3)o1	inconclusive: 25.1 µM [inhibitor, single point]
Fc1ccc2nc(Nc3nc4cc5c(cc4s3)OCO5)sc2c1	active: 8.91 µM
COc1ccc(-n2c(=O)c(CCc3ccccc3)nc3cncnc32)cc1	inactive
CCC1=NN(C(=O)c2cccc([N+](=O)[O-])c2)C(O)(c2ccc(C)cc2)C1 (stereo unspecified)	active: 5.01 µM
COc1cccc(C2CC(c3cccc(Br)c3)n3ncnc3N2)c1 (stereo unspecified)	inconclusive: 22.4 µM [inhibitor, single point]
Cc1ccc2oc(C(=O)Nc3nnc(CC(C)C)s3)c(C)c2c1	active: 7.08 µM

SMILES	Potency
O=C1NCCN1Cc1ccc(Cl)cc1	inactive
Cn1nnc(NC(=S)NC(=O)c2cc3ccccc3o2)n1	active: 1.12 µM
CCN(CC)c1ccc(NC(=S)NCC2CCCO2)cc1 (stereo unspecified)	active: 14.1 µM
CCOC(=O)C1CCN(C(=S)Nc2ccc(C)cc2)CC1	inconclusive: 35.5 µM [inhibitor, single point]
CCOC(=O)N1CCN(C(=O)COc2ccccc2OC)CC1	inactive
O=C(Nc1ccc(N2CCOCC2)cc1)c1ccc(Br)o1	inconclusive: 12.6 µM [inhibitor, partial curve, poor fit]
COc1ccc(CNC(=O)CCC(=O)n2ncc3cc(C)ccc32)cc1	inactive
Cc1ccc(C)c(NC(=O)CSc2nnc(CCCCCNC(=O)OC(C)(C)C)o2)c1	inconclusive: 22.4 µM [inhibitor, single point]
COc1cc(SC)ccc1C(=O)Nc1cccc(C)n1	inactive
O=C(C1=C(O)C(=O)N(CCN2CCOCC2)C1c1cccnc1)c1cc2ccccc2o1 (stereo unspecified)	inactive
CN(C)c1ccc(/C=N/NC(=O)c2ccc3c(c2)OCO3)cc1	inconclusive: 22.4 µM [inhibitor, single point]
O=C(Oc1ccc(C(=S)N2CCOCC2)cc1)c1ccccc1[N+](=O)[O-]	inconclusive: 35.5 µM [activator, single point]
COc1ccc(OC)c(NC(=O)c2ccccc2N(Cc2ccccc2)S(C)(=O)=O)c1	inconclusive: 11.2 µM [activator, partial curve]
CC1(C)CC(CCC(=O)NC(=S)Nc2ccccc2Cl)C(=O)O1 (stereo unspecified)	active: 17.8 µM
Cc1ccc2c(c1C)NC(=O)C21N2CCCC2C(C(=O)c2ccc3ccccc3c2)C12C(=O)Nc1ccccc12 (stereo unspecified)	inconclusive: 2.24 µM [activator, partial curve]
CC(=O)n1nc(-c2cccc(C)c2)nc1SCC(=O)Nc1ccccc1	inconclusive: 20 µM [activator, partial curve]
CSc1nsc2nc(=O)c(/C=C3\C=Nc4ccccc43)c(N)n12	inconclusive: 2.82 µM [activator, full curve, poor fit]
S=C(NNc1nc(Nc2ccccc2)nc(N2CCCCC2)n1)NC1CCCCC1	active: 4.47 µM
COc1ccccc1C(=O)NNC(=O)C(=O)NC1CCCCC1	inconclusive: 35.5 µM [inhibitor, single point]
O=C(NCc1ccco1)c1ccc(Br)s1	inconclusive: 15.8 µM [activator, single point]
Cn1c(=O)c(C(=O)NCCc2ccccc2)c(O)c2ccccc21	inconclusive: 12.6 µM [inhibitor, single point]
Cc1cc(/C=C2/SC(=O)N(CC(=O)OC(C)C)C2=O)c(C)n1C	inconclusive: 0.0501 µM [activator, full curve]
CC(=O)c1c(C)oc2ccc(OCc3ccccc3)cc12	inactive
CCOc1ccc(CCN2CN(C3CCCCC3)CNC2=S)cc1OCC	active: 2.82 µM
Cc1ccc(NC(=S)NCc2ccccc2)c(C)c1	active: 5.01 µM
CCN(CC)c1ccc(NC(=O)/C=C\c2ccccc2Cl)cc1	inactive

SMILES	Potency
COc1cccc([C@@H]2Oc3ccc(OC)cc3C[C@H]2OC(=O)NS(=O)(=O)c2ccc(F)cc2)c1	inactive
O=C(CN1C(=O)c2cccnc2C1=O)c1ccccc1	inconclusive: 7.08 µM [inhibitor, full curve, poor fit]
FC(F)(F)c1cccc(NC(=S)N2CCN(c3cccc(C(F)(F)F)c3)CC2)c1	active: 11.2 µM
COc1ccc2cc(C(=O)C3CCCN(C(=O)CCc4ccccn4)C3)ccc2c1 (stereo unspecified)	inconclusive: 11.2 µM [activator, single point]
CC1(C)CC(=O)C(C(C2=C(O)CC(C)(C)CC2=O)c2ccc(Br)s2)C(=O)C1 (stereo unspecified)	inconclusive: 35.5 µM [inhibitor, single point]
COc1ccc(C(=O)n2c(N)nc3ccccc32)cc1OC	inconclusive: 35.5 µM [inhibitor, single point]
C#CCn1cc(/C=N/NC(=O)c2cc3ccccc3o2)c2ccccc21	active: 17.8 µM
CCCc1cc(SCC(=O)Nc2c(C)n(C)n(-c3ccccc3)c2=O)n2c(nc3ccccc32)c1C#N	inconclusive: 6.31 µM [inhibitor, single point]
CN(C)c1oc(-c2ccc(Cl)cc2)nc1S(=O)(=O)c1ccccc1	inactive
CCOC(=O)c1c(C)nc(C(Cl)(Cl)Cl)nc1N	inconclusive: 10 µM [activator, partial curve]
N#Cc1ccc(C(=O)Nc2ccc(S(=O)(=O)NC3=NCCCCC3)cc2)cc1	inconclusive: 35.5 µM [activator, single point]
S=C(c1ccc(-c2ccccc2Cl)o1)N1CCOCC1	inactive
C=C1C2(C(=O)Nc3ccc(SC(F)F)cc3)CCC(C2)C1(C)C (stereo unspecified)	inconclusive: 31.6 µM [activator, single point]
Cc1ccc(-c2cc(C(=O)N/N=C/C(Br)=C/c3ccccc3)n[nH]2)o1	inconclusive: 35.5 µM [inhibitor, single point]
Cc1cc(C)c([N+](=O)[O-])cc1-c1ccc(/C=N/NC(=O)c2nonc2N)o1	active: 11.2 µM
C/C(=N\NC(=O)Cc1ccccc1[N+](=O)[O-])c1cccnc1	inactive
COC(=O)c1ccc(C23CC4(C2)[C@H](CN(C)[C@@H]4c2ccccc2)C3c2ccccc2)cc1 (stereo partly specified)	inactive
CC(C)c1csc(CN2CCC(n3nccc3NC(=O)Cc3ccccc3)CC2)n1	inconclusive: 31.6 µM [activator, single point]
O=C(/C=C/c1ccccc1)N1CCN(C(=O)c2ccco2)CC1	inconclusive: 0.0891 µM [activator, full curve, poor fit]
Cc1nc(-c2ccccc2)sc1C(=O)NN	active: 12.6 µM
CCOCCOCCC(C(=O)OCC)P(=O)(c1ccccc1)c1ccccc1 (stereo unspecified)	inconclusive: 35.5 µM [inhibitor, single point]
Cc1cccc(-n2ncc3c(NC4CCCCC4)ncnc32)c1	inconclusive: 10 µM [activator, partial curve]
O=C(N/N=C/c1cc(Br)cs1)c1ccc2c(c1)OCCO2	active: 11.2 µM
Cc1ccc(Cl)cc1N(C(=O)c1csnn1)C(C(=O)NC1CCCC1)c1ccco1 (stereo unspecified)	inactive
